For 108 sequences, z-score results are on record in PubChem BioAssay AID1508600 (Functional Genomics Laboratory (NCATS/FGL), 2020).

Hit rate of the full screen: of about 53,000 sequences, about 3,700 (7%) were called active.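 The calls were made as follows: active = gene knockdowns whose robust z-score for IL-1 alpha signal is at least 2 or at most -2, so actives lie on both sides; inactive = the rest.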 This is one part of the list.

This assay in a line: Components of the Cytosolic LPS Sensing Pathway: Gene Identification via Genome-wide siRNA Screen.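 Also: robust z of the log signal after scaling to non-targeting control siRNA wells of the plate.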 The conditions noted are these: RAW264.7 macrophages, IL-1a HTRF, actives lie on both sides, screened at 100 nM (by protocol), cells primed 5 h with Pam3CSK4 first. The procedure, abridged: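 Supernatant IL-1a by HTRF from RAW264.7 cells primed with Pam3CSK4 (5 hours) and transfected with LipidA (24 hour) after 48h siRNA knockdown at 100 nM; cell viability checked with CellTiter-Glo.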
Background: TR-FRET usually uses a lanthanide donor and a delayed reading to cut background.
Regarding GGCAAGAUGAAUUAAAAUGTT against Gcfc2, the z-score is inactive: -0.964. As for GGCCAACCUGGAGAACUUGTT against Atp6v1c2, the z-score was inactive: 0.441. As to GGUUUUUACCUACACUUGUTT against Rdh10, the z-score was inactive: -0.561.

Take CGAUGAAAACUACUCGGCATT against Runx1: the z-score was inactive: 1.49. The result for GGACCAAAAUCUAGAAUACTT against Zfp629 reads inactive: -0.898; that for GACAGAAAUAUAGACUCGATT against Ppp1r42, active: -2.45. As to CGAACGAUUGAAGAUUUCUTT against Nat3, the z-score is active: 2.81.

Turning to GGAUCAUCUCUUUGGGCUGTT against Tmem37, the z-score was inactive: 0.127.

GCUUAUCCGCCAUCAAAGATT against Zfp3: the z-score is inactive: 1.69.

For GGCUUCUCCAAAGCUUUAGTT against Dkkl1, the z-score is inactive: -1.15. The result for CGUAUUUCACAAAUACGGATT against Sohlh2 reads inactive: 0.215; that for CGCAAGGAAAAAAAGUAAGTT against Slc16a13, inactive: 0.93; that for GGACACCUACCAAAAGUUATT against Cd9, inactive: 0.432. Under GGUUGCAGAUUUCCGAAGATT against Ficd stands inactive: 0.0659; under GGCCCUUUAUUCUUAAAAGTT against Gpr88, inactive: 0.267. The result for GGCAUACUACACAAAGCAGTT against Tssk4 reads inactive: -1.23; that for GGAAGAGCAACUGCUACAATT against Rnase1, inactive: -1.98.

For the sequence CCAAACCUAUUCUGAGAUGTT against Klrg2, the z-score is inactive: -0.0403. For the sequence GGAGUAGGAACAAAAAUUGTT against Polb, the z-score was inactive: -0.153. In the case of GCCGGUUUACUGCCUAAAATT against Snx32, the z-score is inactive: 0.669. On to CGAAGAGUUUAAGUCCAUGTT against Bnip1, for which the z-score was inactive: 0.145. On to GGAGAAGCAGUUUCUGAAUTT against Bsn, for which the z-score is inactive: 1.38. On to GGAUUUCAAAAACCACGUGTT against Snx1, for which the z-score is inactive: 1.14. Under GCUAUACAUCGAGUUUGUCTT against Mlec stands inactive: 0.298; under GCCAGAGCGGAUUAUUGGATT against Cbx1, inactive: -1.19.

In the case of GGAAGAAAGCCAUUUGCUUTT against Nol9, the z-score is inactive: 1.71. Take GGGAACAAGGUCAUCUCCUTT against Olfr1444: the z-score is inactive: 1.05. In the case of GGAGACCUGAUUCCAGGCATT against Zfa-ps, the z-score was inactive: -0.719.

Take CCUCACUUAACCAUACAUGTT against Rnd3: the z-score is inactive: 0.508. For the sequence GGGUUCUCUACCUCAUCCUTT against Uts2r, the z-score was inactive: -0.387. As to GGAAAACAUACCAUGUAUGTT against Zfp322a, the z-score is inactive: -0.38. Under CGACGAGGAAUAACCUCUCTT against Myh6 stands active: 2.05; under GGCUUCUGUGGGAAUCACATT against Ednrb, inactive: -0.657; under GGAGAAUGAGUGGUAUCUGTT against Msh2, inactive: -1.48. The result for GGCUUACCUUAUUGUGAUCTT against Psen2 reads inactive: -0.795; that for GCCACAAUACUUCCAGCAATT against Tnr, inactive: -0.567. With GGCUUACGAUGAAAAUAAATT against Lca5, the z-score is inactive: -1.94. Take CCUCUAUGGUCUGCCUCAUTT against Spint2: the z-score was inactive: 0.0672. As to GCUUACCUUGUUCUUAAAGTT against D2hgdh, the z-score is inactive: -1.62. The result for CCUACGCAGCAUGUGUGAATT against Exosc4 reads inactive: -0.13. Turning to GGGCCUGUACAUCUUCCAATT against Anpep, the z-score was inactive: 0.926. For GGUCUCAGAGCUACAUCCCTT against Plekha2, the z-score is inactive: -0.206.

In the case of CCAAAGACAUCUCACACAGTT against Tgfb1, the z-score was inactive: -1.2. GGACGUACUCCGGAGCUUUTT against Mal2: the z-score was inactive: 1.65. GUAUUUCCAGUAUUACUUGTT against AI467606: the z-score is inactive: -0.0923. For the sequence GGUGGAUAAAGCUUAAAUATT against V1rg10, the z-score was inactive: -0.258. Take CCUGUCCUACCAAAGUCUUTT against Tmem126a: the z-score is inactive: -1.81.

GAAUGUCUGAGCAAGGAGGTT against Arpp21: the z-score was inactive: 0.227. The result for GGAUGUUACUUAAUGACUATT against Zfp160 reads inactive: -0.513; that for GCUCUGUUCUCCAAACUGCTT against Pyy, inactive: 0.119. The result for GGUAUCCUCUUUUUUAACCTT against Exosc9 reads inactive: -0.849; that for GCCGGAUAGACCAAUUGGATT against Nlk, inactive: -0.27. Consider GGAAGAAAUAGAUGAGAAUTT against Tnmd, for which the z-score is inactive: 0.245. Under GGCCGUCACUGCCAAUAGUTT against Dnah2 stands inactive: 0.684; under GGGAUACCUCAUUUUUUCUTT against Olfr107, inactive: 1.75; under GGAGAAAACCAUCUUGGUUTT against Olfr284, inactive: 0.105. Under CCCAUCUUCAGAUUGUGCATT against Gabrg3 stands inactive: 0.575; under GCUGUGUGCCACUUUAUGUTT against Ebna1bp2, inactive: 0.583. For the sequence GGAAAAGGAAAAGAAGAAGTT against Brd3, the z-score is inactive: -0.00641. Consider CCUUUAGAGUUUGAUCUGCTT against Cebpg, for which the z-score is inactive: -0.0789. Regarding GGUUGAAUCUGUAAACAUGTT against Ercc6, the z-score was inactive: 1.21. For the sequence GGAUGUGGCUGAAUCUCUGTT against Zkscan14, the z-score was inactive: -0.873. Turning to GGCACAGAAGAAUGAGAGATT against Schip1, the z-score is inactive: 0.217. As for GGCCAUGGAGAUCAUGUUATT against Svopl, the z-score was inactive: -0.554. The result for CCGUCCUGCAUCGGAUUUATT against Ppp2r5a reads inactive: 0.801; that for GCGCAUCCGUGUGAAAUUCTT against Timm21, inactive: -1.1.

GGGAGCCACAUACAAAUACTT against Noc4l: the z-score was inactive: 1.02.

For GGACAAUUAACGAUCCCACTT against Pdxp, the z-score is active: -2.58. The result for GGUAUAUAACAACCUGUAUTT against Ttc29 reads inactive: -1.43; that for CCCAAUUGUAGAGUCAUGGTT against Rab43, inactive: -0.261; that for GCACCUUUGAGUGCAACAUTT against Rnf185, active: -2.37.

Take AAAGAUGAGAGAAGAACUCTT against Bud31: the z-score is inactive: 0.253.

Turning to GGCUGCAUCCAAAACAGAATT against Ubash3b, the z-score was inactive: -0.964. Under GGACCUUUCUGAAGUCCAATT against Ahsp stands inactive: -0.0978.

Consider GGAUUCUGAACCUUACAGATT against Hoxd9, for which the z-score is inactive: 1.61. The result for GGAAGUUGUACGGACAGACTT against Nr4a1 reads inactive: -1.09; that for GCCAUGUUCAAAUUGACGGTT against Pi4ka, inactive: 1.57; that for GGACAUCUUAAGAUCUUUGTT against Dipk2b, inactive: -1.11. As to GGGAGUCUCUUUGACAAUGTT against Vps26c, the z-score is inactive: 1.28. For the sequence “GGUUAAGACUCACGACCUGTT against 1700092C17Rik”, the z-score was inactive: -0.933.

In the case of GGAAAAUUCAGGAAGUUUGTT against Magi3, the z-score was inactive: 0.489. Under GACUGCUUCCUUCUGACUGTT against Olfr399 stands inactive: -0.575; under GGAAUUCUUAGCCAAUGCCTT against Gas2l1, inactive: 0.396. Under GGCAGAAUUUGAGCACUUUTT against B4galnt2 stands active: -2; under GGAUCCUAACUAUAUUCUCTT against Pdyn, inactive: -0.0327. Regarding GGCGGAGGAAAUUUCUGGATT against Creb5, the z-score is inactive: -0.388. As for CGUGAAGAUCGAACAGGACTT against Wfs1, the z-score was inactive: 1.12.

With GCAAGACUGAGAGAAUUGGTT against Pi16, the z-score was inactive: -0.00781. The result for GGAUCUUCAAGGUUAACCATT against Prmt7 reads inactive: 1.18; that for GCUCAAAGUUUGAACUGGCTT against Atxn2l, inactive: 0.153; that for GCUUUCAGGGAAACUUGCCTT against Ky, inactive: 0.129. The result for GGAUUACGAAAAUCAUGGUTT against Polr3e reads inactive: -1.77; that for GGUAAAAGAGGCAAUUACGTT against Olfr1497, inactive: 0.591. On to CGCUGCUUUUCCUAGCAGATT against Orai1, for which the z-score is inactive: 0.194. Consider CGAACGUGCCAACUUACUATT against Gpd2, for which the z-score was inactive: -0.517. Under CCACUUUCUGUUGCACUCUTT against Slc25a23 stands inactive: 0.41; under GGCCUUGAAAGCCAUUGGUTT against Kmo, inactive: -0.728.

For the sequence GGUUACCAACCUUCUCAUGTT against Ptbp1, the z-score is inactive: -0.778. The result for GGAAUUAUCUUCAUCCCUGTT against Abhd10 reads active: -4.79. The result for GGAAAAACUACUCAAGGAGTT against Evi5l reads inactive: -0.0731; that for GUUCCCUGCCUGGCAGAAUTT against Foxd2, active: 3.8. In the case of GGGUGAGUUCUUAAGCUCATT against Ndufb2, the z-score is inactive: -1.06. GGUGGAACAGUGGAAUUCGTT against Grhpr: the z-score is active: 2.41. The result for GGUGUUUGUGACUCUGGGUTT against Mc4r reads active: 2.77; that for GGACCUGCACUUAAUGUUUTT against Gabarap, inactive: 0.614; that for GGUACUGGAAGAGGAGGUATT against Ppil3, inactive: -0.507.

In the case of CCAGACCUGCGCUUUUUUGTT against Myod1, the z-score was inactive: -0.00348. Under CCUCCAGUUACGAUGGAGATT against Wdr95 stands inactive: 1.14.
